These are yes or no findings as the source states them, for the method shown. Some results given as binding are weak or reduced against the parent protein; the word gives no strength.
Target: von Willebrand factor (Vwf) (mouse (endogenous in blood plasma)) (UniProt Q8CIZ8)
Assay: SDS/agarose gel electrophoresis with immunoblot

By UniProt entry, the sequences of proteins in these tests, tags left out. Residues count along the entry.
UniProt Q8CIZ8, residues 764-2813: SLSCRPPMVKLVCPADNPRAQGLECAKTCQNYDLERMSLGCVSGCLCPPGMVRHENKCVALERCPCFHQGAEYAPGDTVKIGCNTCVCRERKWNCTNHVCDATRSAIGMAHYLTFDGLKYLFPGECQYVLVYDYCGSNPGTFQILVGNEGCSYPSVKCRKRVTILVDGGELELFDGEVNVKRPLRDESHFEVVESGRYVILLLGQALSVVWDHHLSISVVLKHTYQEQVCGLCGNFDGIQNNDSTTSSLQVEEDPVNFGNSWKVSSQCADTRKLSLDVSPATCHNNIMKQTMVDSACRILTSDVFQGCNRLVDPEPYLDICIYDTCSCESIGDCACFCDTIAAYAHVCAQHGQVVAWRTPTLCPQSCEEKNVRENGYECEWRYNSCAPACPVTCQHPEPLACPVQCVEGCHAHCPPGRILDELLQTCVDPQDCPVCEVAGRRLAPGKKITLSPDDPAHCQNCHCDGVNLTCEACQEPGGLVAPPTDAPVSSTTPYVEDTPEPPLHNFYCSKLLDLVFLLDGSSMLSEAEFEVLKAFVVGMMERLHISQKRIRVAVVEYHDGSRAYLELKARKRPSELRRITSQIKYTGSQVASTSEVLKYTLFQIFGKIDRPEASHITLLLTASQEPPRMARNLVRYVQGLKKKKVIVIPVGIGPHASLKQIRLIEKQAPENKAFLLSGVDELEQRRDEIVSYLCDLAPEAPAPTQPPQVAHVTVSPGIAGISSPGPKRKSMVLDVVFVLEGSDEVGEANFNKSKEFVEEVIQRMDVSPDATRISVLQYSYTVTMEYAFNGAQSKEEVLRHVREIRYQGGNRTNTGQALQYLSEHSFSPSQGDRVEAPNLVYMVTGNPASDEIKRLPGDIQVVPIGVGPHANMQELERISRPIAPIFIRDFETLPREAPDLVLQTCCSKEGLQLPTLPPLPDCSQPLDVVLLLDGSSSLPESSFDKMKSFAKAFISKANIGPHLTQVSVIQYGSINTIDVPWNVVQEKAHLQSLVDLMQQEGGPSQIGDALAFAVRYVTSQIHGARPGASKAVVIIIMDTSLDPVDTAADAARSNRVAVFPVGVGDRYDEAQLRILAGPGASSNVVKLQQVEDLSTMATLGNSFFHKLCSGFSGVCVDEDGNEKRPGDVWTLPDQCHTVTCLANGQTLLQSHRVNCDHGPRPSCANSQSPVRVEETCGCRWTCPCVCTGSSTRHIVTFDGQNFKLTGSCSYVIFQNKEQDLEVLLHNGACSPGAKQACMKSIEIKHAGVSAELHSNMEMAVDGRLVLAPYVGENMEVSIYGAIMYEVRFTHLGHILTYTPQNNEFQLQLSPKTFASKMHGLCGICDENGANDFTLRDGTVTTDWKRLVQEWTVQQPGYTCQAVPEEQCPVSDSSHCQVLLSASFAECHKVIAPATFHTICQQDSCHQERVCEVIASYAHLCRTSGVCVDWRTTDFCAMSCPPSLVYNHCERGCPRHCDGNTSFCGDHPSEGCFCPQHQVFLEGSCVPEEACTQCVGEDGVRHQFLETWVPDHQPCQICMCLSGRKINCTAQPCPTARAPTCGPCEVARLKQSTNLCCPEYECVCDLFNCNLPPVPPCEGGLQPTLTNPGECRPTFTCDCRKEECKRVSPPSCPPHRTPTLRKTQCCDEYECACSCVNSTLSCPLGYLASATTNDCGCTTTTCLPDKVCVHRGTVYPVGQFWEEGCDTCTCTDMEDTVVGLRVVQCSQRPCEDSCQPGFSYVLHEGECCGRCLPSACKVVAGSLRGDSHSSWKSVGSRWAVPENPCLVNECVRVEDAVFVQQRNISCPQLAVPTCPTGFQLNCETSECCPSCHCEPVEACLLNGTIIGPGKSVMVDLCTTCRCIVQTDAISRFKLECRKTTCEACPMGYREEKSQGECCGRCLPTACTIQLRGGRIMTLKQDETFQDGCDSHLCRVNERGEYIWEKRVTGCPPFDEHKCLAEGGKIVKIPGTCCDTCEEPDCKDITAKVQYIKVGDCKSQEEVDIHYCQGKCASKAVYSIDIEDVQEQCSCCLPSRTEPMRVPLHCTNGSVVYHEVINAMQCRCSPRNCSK

binding: binds
Substance: von Willebrand factor (Vwf) (from UniProt Q8CIZ8 764-2813)
